Results reported in PubChem BioAssay AID2685 (National Center for Advancing Translational Sciences (NCATS), 2010).
This is one part of the list. Shown are side measurements of this screen, not its main read-out; they come without a call. Compounds called inactive in the main read-out are mostly missing here. Words in brackets tell the shape of the fitted curve; partial curves, single points and poor fits give uncertain potencies.

Assay: qHTS Assay for Lipid Storage Modulators in Drosophila S3 Cells;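 for cell number change: cells counted by Cell Tracker Red CMTPX staining in the red channel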
Conditions: BODIPY lipid droplet fluorescence, 18-24 h; for cell number change: measured here: cell count max response, cells fed with added oleic acid
Outline: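 Drosophila S3 cells got compounds at several concentrations plus oleic acid (400 uM solution). Laser-scanning cytometry with 488 nm excitation read lipid droplets at 500-530 nm and cells at 575-640 nm. Percent activity was relative to 20 uM Triacsin C.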

[1] = measured here: lipid fluorescence (Fed channel) AC50, cells fed with added oleic acid
[2] = measured here: cell number channel AC50, cells fed with added oleic acid

Compound	cell number change	AC50 [1]	AC50 [2]
COc1ccc2[nH]c(=O)c(C(c3nnnn3C3CCCCC3)N3CCN(C)CC3)cc2c1 (centres undefined)	20.8%	23.1 µM [rising, single point]	–
O=C(Cc1ccc(S(=O)(=O)N2CCOCC2)s1)Nc1cc(Cl)ccc1Cl	4.59%	0.184 µM [falling, full curve, poor fit]	–
O=C(Cc1cccs1)Nc1ccc(Cl)c(S(=O)(=O)N2CCOCC2)c1	26.1%	–	–
COc1ccc(S(=O)(=O)N2CCCCC2)cc1NC(=O)CCNC(=O)c1ccccc1Cl	9.56%	–	–
COC(=O)c1cccc(-n2nnnc2SCC(=O)Nc2nc3c(s2)CCCC3)c1	-7.66%	0.58 µM [rising, single point]	0.517 µM [rising, full curve, poor fit]
COc1cc(/C=N/NC(=O)c2cc(-c3c(C)nn(-c4ccccc4)c3C)n[nH]2)ccc1O	-1.02%	6.51 µM [falling, single point]	6.51 µM [falling, single point]
O=C(O)COc1ccc(NC(=O)c2ccc3c(c2)C(=O)N(Cc2ccccc2)C3=O)cc1	3.96%	–	3.66 µM [rising, single point]
CCN(CC)CC(C)OC(=O)c1ccccc1Cl (centres undefined)	-7.36%	4.11 µM [falling, full curve, poor fit]	–
COc1c(Br)cc([N+](=O)[O-])c(OC)c1C(=O)NC(=O)Nc1nc(C)cc(C)n1	4.91%	18.4 µM [rising, partial curve]	–
COc1ccc(N/C(N)=N/c2nc(CSc3ccc(C)cc3)cc(=O)[nH]2)cc1	10.1%	–	0.184 µM [rising, partial curve]
Cc1c(NC(=O)CSc2nnc(-c3cccnc3)n2N)c(=O)n(-c2ccccc2)n1C	-3.37%	0.731 µM [falling, full curve]	0.731 µM [falling, full curve]
CN(C)CCCN(C(=O)CCc1ccccc1)c1nc2c(F)cccc2s1	-27.8%	32.6 µM [falling, partial curve, poor fit]	–
COc1cc(C(=O)Nc2ccc3c(c2)OCCO3)ccc1-n1cnnn1	24.1%	2.59 µM [rising, partial curve]	–
O=C(NCCc1c[nH]c2ccccc12)Nc1cccc2ccccc12	–	29.1 µM [rising, single point]	–
CC1CCCC(C)N1C(=O)COC(=O)CNC(=O)c1ccc(Cl)cc1Cl (centres undefined)	-14.5%	–	–
Cc1ccc(CNC(N)=S)cc1	-8.41%	0.103 µM [falling, full curve, poor fit]	–
CCCn1c(N)c(N(C)C)c(=O)n(CC(=O)Nc2ccc(OC(F)(F)F)cc2)c1=O	11.2%	6.51 µM [rising, single point]	–
COc1cc([N+](=O)[O-])cc(/C=N/NC(=O)CSc2ccccn2)c1O	–	4.11 µM [rising, single point]	–
Cc1ccc(-n2ncc3c(=O)n(CC(=O)Nc4cccc(Cl)c4)cnc32)cc1C	-12.9%	29.1 µM [falling, single point]	–

A few values from above:
cell number change with `O=C(Cc1cccs1)Nc1ccc(Cl)c(S(=O)(=O)N2CCOCC2)c1` reads 26.1%
cell number change with `COc1ccc2[nH]c(=O)c(C(c3nnnn3C3CCCCC3)N3CCN(C)CC3)cc2c1` (centres undefined) reads 20.8%
AC50 [1] with `O=C(NCCc1c[nH]c2ccccc12)Nc1cccc2ccccc12` reads 29.1 µM [rising, single point]

Next records follow:

Compound	cell number change	AC50 [1]	AC50 [2]
O=C(COC(=O)C1CC(O)CN1S(=O)(=O)c1ccc(Cl)cc1)c1ccccc1Cl (centres undefined)	–	20.6 µM [rising, partial curve]	–
COc1ccccc1N1CCN(c2cnccn2)CC1	26.6%	–	6.51 µM [rising, single point]
COc1cccc(-c2cnc(NCc3cc(Cl)ccc3O)n2C)c1	5.52%	4.11 µM [falling, single point]	5.8 µM [falling, single point]
COc1ccc(Cl)cc1NC(=O)CN(C)C(=O)CCc1nc2ccccc2c(=O)[nH]1	-24.7%	2.59 µM [falling, partial curve]	–
O=C(CCN1C(=O)[C@@H]2Cc3ccccc3CN2C1=O)NCc1ccccc1Cl	11.8%	5.17 µM [rising, single point]	–
COc1cc(NC(=O)c2cccs2)c(OC)cc1NC(=O)CCn1nnc2ccccc21	-26%	0.164 µM [rising, full curve, poor fit]	0.231 µM [falling, full curve, poor fit]
NS(=O)(=O)c1ccc(-n2nncc2C23CC4CC(CC(C4)C2)C3)cc1	1.69%	–	–
O=[N+]([O-])c1ccc(N2CCN(CCO)CC2)cc1Sc1ccccn1	-32%	–	0.00461 µM [falling, full curve, poor fit]
Cc1ccccc1-n1nc(C)c2cc(C(=O)N3CCN(S(=O)(=O)c4ccc(F)cc4)CC3)sc21	–	6.51 µM [rising, single point]	–
COC(=O)c1ccc(Oc2nc(NC(C)(C)C)nc(N3CCOCC3)n2)cc1	–	0.116 µM [falling, full curve, poor fit]	–
CCCCNc1c([N+](=O)[O-])ncn1C	0.359%	6.51 µM [falling, single point]	–
O=C(Nc1cccc(F)c1)Nc1ccnn1C1CCN(C(=O)c2ccccn2)CC1	-10.5%	29.1 µM [falling, single point]	–
CCOC(=O)c1c(NC(=O)C2CCCO2)sc(C(=O)OC(C)(C)C)c1C (centres undefined)	19.8%	5.8 µM [rising, partial curve, poor fit]	–
O=C(c1cccc(S(=O)(=O)N2CCCC2)c1)N1CCN(Cc2ccccc2)CC1	-1.82%	4.61 µM [falling, single point]	–
O=C(NC1CCCCCCC1)c1cccc(S(=O)(=O)N2CCOCC2)c1	–	29.1 µM [rising, single point]	–
Cc1cc(SCC(=O)NC2CCCC2)nc2ccccc12	21.7%	29.1 µM [rising, partial curve]	–
COc1ccccc1/C=C/C(=O)OCC(=O)Nc1ccccc1Sc1ccccc1	–	2.91 µM [rising, full curve, poor fit]	–
Cc1ccc(C(=O)NCc2ccc(N3CCN(C)CC3)cc2)cc1C	4.23%	29.1 µM [rising, single point]	–
CC1CCCCN1C(=O)COc1ccc2ccc(=O)oc2c1 (centres undefined)	–	0.00461 µM [falling, full curve, poor fit]	–
